Data on three sequences can be found in patent publication US5702914, “Use of reporter genes for retinoid receptor screening assays having novel retinoid-associated response elements” (The Salk Institute for Biological Studies).

Data set [1] deals with RIP (retinoid-inducible protein). As to the kind of experiment: EMSA. The following applies: nearly 100-fold induced by retinoic acid in P19 nuclear extract; absent in NT2/D1 extract; protein in an extract; protein details: nuclear extract of retinoic acid-treated P19 cells.
Data set [2] shares this test system. As to the kind of experiment: competition with a labelled probe. The settings on record: mutant does not compete for RIP binding in gel retardation; protein in an extract; protein details: nuclear extract of retinoic acid-treated P19 cells; variant of URE-wt (RIP-binding-site).
Data set [3] has as its system RAP (retinoid activating protein). As to the kind of experiment: EMSA. The settings on record: specific binding; activity absent in CV-1 extract; exact 90 bp range within SEQ ID NO:2 not stated; protein in an extract; protein details: NT2/D1 cell nuclear extract.

For at least one entry, the source does not settle the construct or the ends of the probe. At least one result comes from cells or an extract, where the contact may be indirect. For part of these data: No signal at the amounts used counts as a negative.

As to “AGCTACACCCTGACAGGTTACAAATA (double strand) [URE-wt (RIP-binding-site)]”, the binding result in data set [1] was “binds”. For the sequence “CAGGCAGACACCCTGACAGGTTACAAATGAGCGTGG (double strand) [URE mut]”, in data set [2], the binding result was “no binding”. With “GGCGGGCGGAGGAGGCCGAGGTAACCTGGGATCCCGGGCCTGACCTTTTTACCTCGAAGCGCCTCTGGGCTTTCCAAACAAGCCGACAGCGCGCCCGCGGGGGCAGCTATTGTCTCCGGGCCGGTCCCACTGGCAAACCTTTGGTC (double strand) [90 bp RAP-binding-site fragment]”, the binding result in data set [3] is “binds”.
